± gives the standard deviation. The list shows a part of the results, in another mix than the full data. The uncertainty is large for many entries.

This test relates to MIWI (PIWIL1) piRISC loaded with Kctd7 piRNA (30 nt). Briefly: pre-steady-state target cleavage rate (min^-1); MIWI and MILI are mouse PIWI proteins and EfPiwi is from a freshwater sponge; tags in brackets are library labels; higher = faster piRNA-guided slicing of the target. The settings on record: guide: Kctd7 piRNA 5'p-UGUUAAUCUCUCAGAGAAGGUGACAGUGAU; auxiliary factor: 500 nM mouse GTSF1. In outline:
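Cleave-'n-Seq reactions paired 0.1 nM transcribed, DNA-blocked target RNA library with 1 nM active affinity-purified piRISC holding one synthetic guide, plus or minus 500 nM GTSF1 partner protein, in HEPES–potassium acetate buffer at 33 °C for 0–8 or 0–960 min. After sequencing of uncleaved targets and normalisation to depth and weakly complementary targets, the pre-steady-state cleavage rate was taken from a burst-and-steady-state fit. Three trials were pooled, and k3 was capped at 0.0001 min^-1.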
As to UAGUGACUCACCUUCUGACAGAGAUUAACA, the “pre-steady-state target cleavage rate” value was 0.000332 ± 0.023.
For UAGUGACAGACCUUCUCUGAGAGUUUUUGA, the “pre-steady-state target cleavage rate” value worked out at 0.000939 ± 0.013.
For the sequence UAGUGACAGUGGAACUCUGAGUGAUUUACA, the “pre-steady-state target cleavage rate” value was determined as 0.000134 ± 0.043.
As to UUCACUGUCACCUUCUCUGAGACUAUAUGA, the “pre-steady-state target cleavage rate” value amounted to 0.00159 ± 0.0043.
Take UAGUGACUCACCUUGACUGAGAGAUUAAGA: the “pre-steady-state target cleavage rate” value is 0.000806 ± 0.011.
Regarding UAGUGUGUCACCUUCUCUCAGAGAUAUUGA, the “pre-steady-state target cleavage rate” value was found to be 0.00393 ± 0.0047.
As for UAGUGACAGUCCUUCUCUGUGACAUUAACA, the “pre-steady-state target cleavage rate” value is 0.00173 ± 0.0038.
As for UACACUCUCACCUUCACUGAGAGAUUAACA, the “pre-steady-state target cleavage rate” value is 0.256 ± 0.02.
UAGUGACAGACCUUCACAGAGAGAUUAACA: the “pre-steady-state target cleavage rate” value is 0.00158 ± 0.0076.
For UAGACUGUCACCUCUCUGAGAGAUUAACA, the “pre-steady-state target cleavage rate” value was 0.321 ± 0.036.
On to UAGUCUGUCACCUCUCUCUGAGAGAUUAACA, for which the “pre-steady-state target cleavage rate” value is 0.481 ± 0.032.
As for UAGUGACAGUGCUUGUCUGAGUGAUUAACA, the “pre-steady-state target cleavage rate” value is 0.000644 ± 0.01.
For UAGUGACAGACCUUCUCUGAGACAUUAUGA, the “pre-steady-state target cleavage rate” value came out at 0.000563 ± 0.013.
Turning to UAGUCUGUCACCUUGUCUGACAGAUUAACA, the “pre-steady-state target cleavage rate” value stood at 0.00146 ± 0.0078.
In the case of UUCACUGUCACCUUCUCUGAGAGUUUAUCA it was 0.27 ± 0.061; in that of UAGUGACAGUGCUUCUCUGUGAGAAUAACA, 0.000422 ± 0.011; in that of UAGUGACAGUGCUUCUCUGUGUGAUUAACA, 0.000916 ± 0.006.
For UAGUGACACACCUACUCUGAGAGAUAUUGA, the “pre-steady-state target cleavage rate” value turned out to be 0.000424 ± 0.012.
Consider UAGUGACUCACCAUCUCUGAGAGUUUAACA, for which the “pre-steady-state target cleavage rate” value amounted to 0.173 ± 0.035.
Turning to UAGACUGUCACCUUGAGUGAGAGAUUAAGA, the “pre-steady-state target cleavage rate” value was determined as 0.000574 ± 0.011.
Regarding UAGUGACAGUGCUUCUGUGAGAGAUUAAGA, the “pre-steady-state target cleavage rate” value is 0.000792 ± 0.0082.
UACACUGUCACCUUCUCUGACUGAUUAUGA: the “pre-steady-state target cleavage rate” value amounted to 0.00134 ± 0.012.
In the case of UUCACUGUCACCUUCUCUGAGUCAUAUUGA it was 0.00246 ± 0.0033; in that of UAGACUGUCACCUAGUCUGAGAGAUAUUGA, 0.000769 ± 0.0068; in that of UAGUGACAGUGCAUUCUCUGAGAGAUUAACA, 0.0141 ± 0.0028.
As for UAGUGACAGUCCAAGUCUGAGAGAUUAACA, the “pre-steady-state target cleavage rate” value stood at 0.000295 ± 0.017.
In the case of UAGUGACAGUGCUCUCUGAGAGAUUAACA, the “pre-steady-state target cleavage rate” value was found to be 0.000237 ± 0.0092.
In the case of UAGUGACAGUGGAAGAGAGAGAGAUUACCA it was 0.000297 ± 0.018.
On to UAGUGUGUCACCUACUCUCAGAGAUUAACA, for which the “pre-steady-state target cleavage rate” value came out at 0.0454 ± 0.009.
UACACUGUCAGGUUCUCUGAGAGAUUUUGA: the “pre-steady-state target cleavage rate” value came to 0.00198 ± 0.0045.
Take UAGUGACAGUGGAAGAGUGAGAGUUUAUCA: the “pre-steady-state target cleavage rate” value is 0.000371 ± 0.016.
In the case of UAGUCUGUCACCUUCUCUGAGUCUUUAUGA it was 0.00112 ± 0.006; in that of UAGUGACACACGAUCUCUGAGAGAUUAUGA, 0.000277 ± 0.025.
On to UAGUGACAGACCUUCUCUGAGAGUUAACA, for which the “pre-steady-state target cleavage rate” value is 0.00107 ± 0.01.
For the sequence UACACUGUCACCUUCUCUGUCAGAUUAAGA, the “pre-steady-state target cleavage rate” value amounted to 0.00468 ± 0.006.
In the case of UAGACAGUGACCUUCUCUGAGAGAUUAACA it was 0.554 ± 0.033; in that of UAGACUGUCACCUUCUCACUGAGAUUUUGA, 0.000875 ± 0.0084; in that of UAGUGACAGACCUUCUCUGAGAUGAUUAACA, 0.000805 ± 0.0076.
In the case of UAGUCUGUCACCUUCUCUGAGUCAUUAAGA it was 0.00135 ± 0.0053.
UAGUGACUCACCUUCUCUGGAGAGAUUAACA: the “pre-steady-state target cleavage rate” value came to 0.000546 ± 0.013.
With UAGUGACACACCUUCUCUGAGAGUAUAUGA, the “pre-steady-state target cleavage rate” value was 0.0031 ± 0.004.
Regarding UAGUGACACACGAUCUCUGAGAGAUUAAGA, the “pre-steady-state target cleavage rate” value amounted to 0.00171 ± 0.0036.
In the case of UAGACUGUCUGCUUCUCUGAGAGAUUUUGA it was 0.00067 ± 0.01.
On to UAGUGACAGACCUUCGUCUGAGAGAUUAACA, for which the “pre-steady-state target cleavage rate” value was 0.00238 ± 0.0046.
On to UAGUGACACACCUUCUCUGACUCAUUAACA, for which the “pre-steady-state target cleavage rate” value was 0.00115 ± 0.0052.
Take UACACUGUCACCUUCUCUGUCUGAUUAUGA: the “pre-steady-state target cleavage rate” value was 0.00287 ± 0.0084.
Turning to UACACUGUCACCUUCUCUCAGAGAUAUUGA, the “pre-steady-state target cleavage rate” value was determined as 0.00311 ± 0.0061.
Regarding UAGUGACAGUCCUUGACUGAGAGAUUAUGA, the “pre-steady-state target cleavage rate” value came out at 0.000477 ± 0.012.
Turning to UAGUGUGUCACCUUGACUGAGAGAUUUUGA, the “pre-steady-state target cleavage rate” value was 0.00069 ± 0.012.
In the case of UAGUGUGUCACCUUCUCUGAGACUAUAUGA it was 0.00115 ± 0.0091; in that of UAGUGACAGUGGAAGAGAGACUCAUUAACA, 0.000426 ± 0.012; in that of UAGUGACAGUGGUUCACUGAGAGAUUUACA, 0.000444 ± 0.018.
As to UUCACUGUCACCUUCUCUGACUCAUUAUGA, the “pre-steady-state target cleavage rate” value is 0.00155 ± 0.0042.
Turning to UAGACUGUCUGCUUCUCUGAGAGAUAUUGA, the “pre-steady-state target cleavage rate” value is 0.000375 ± 0.015.
In the case of UAGUGACAGUGCUUCUCUGAGAGAAAUACA it was 0.000106 ± 0.029; in that of UAGUGACAGUGCUUCUCUGAGAGAUCUAACA, 0.00149 ± 0.0037; in that of UUCACAGUCACCAUCUCUGAGAGAUUAACA, 0.747 ± 0.039.
Consider UAGUCUGUCACCUACUCUGAGAGAUAUUGA, for which the “pre-steady-state target cleavage rate” value was 0.00258 ± 0.0039.
In the case of UAGUGACAGUGGAAGACUGACUCAUUAACA, the “pre-steady-state target cleavage rate” value was 0.000101 ± 0.027.
For the sequence UAGUGACUCACCUUCAGUGAGAGAUUAUGA, the “pre-steady-state target cleavage rate” value came out at 0.00151 ± 0.0056.
Turning to UAGUCUGUCACCAUCUCUGAGAGAUUAACA, the “pre-steady-state target cleavage rate” value amounted to 0.667 ± 0.038.
In the case of UAGUGACAGUGGAACUCUGAGACAUUAACA it was 0.000984 ± 0.018.
Consider UAGUGACUCACCUUGAGUGAGAGAUUUUGA, for which the “pre-steady-state target cleavage rate” value was 0.00056 ± 0.016.
In the case of UAGUGUGUGUGCUUCUCUGAGAGAUUUUGA, the “pre-steady-state target cleavage rate” value is 0.0007 ± 0.012.
Consider UACACUGAGACCUUCUCUGAGAGAUAUUGA, for which the “pre-steady-state target cleavage rate” value stood at 0.0195 ± 0.0074.
On to UAGUGACAGUGGAACUCUGAGAGAUUAAUA, for which the “pre-steady-state target cleavage rate” value came to 0.000426 ± 0.027.

These data come from the supplement of paper PMC10338343.
